Record: PubChem BioAssay AID1259405 (NCATS, 2018)
Aim: 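Mouse-designed siRNAs used to find CHO productivity engineering targets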 (primary screen). Cell system: Chinese hamster CHO-K1 ovary cells with stable secreted eGFP expression. Reagent: single siRNA against mouse genes, 0.8 pmol siRNA per well (2 µl of 400 nM stock). Timing: 3 days. Detection: 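Percent of the per-plate non-targeting control median for intracellular GFP per well by laser scanning cytometry and for cell viability by ATP luminescence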. Direction: GFP, % of control: higher = more GFP per well, higher productivity; viability (ATP), % of control: higher = more viable cells (more ATP). Hit rule: 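a knock-down is called active if GFP reaches 120% or more of non-targeting control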.
This is a random part of about 50,000 reagents. About 4,000 of them (8%) were called active. 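Mouse siRNA library applied to hamster cells; one well for each siRNA.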 No sequences are given here.

Target gene,PubChem SID,"GFP, % of control","viability (ATP), % of control",outcome
Zfp280d,SID363541040,29.8,56.9,inactive
Zfp280d,SID363555667,85.7,70.7,inactive
Zfp280d,SID363565956,91,77.7,inactive
Slc30a6,SID363547607,108,65.2,inactive
Slc30a6,SID363558376,87.7,78,inactive
Slc30a6,SID363560134,73.8,98.9,inactive
Hck,SID363570780,82.2,69.4,inactive
Poglut1,SID363553797,61.4,50.1,inactive
Poglut1,SID363561754,39,81.8,inactive
Poglut1,SID363565492,76.5,58,inactive
Or6c68,SID363554675,198,101,active
Or6c68,SID363568122,80.7,77,inactive
Or6c68,SID363586181,75.6,84,inactive
Arel1,SID363541677,56.2,61.4,inactive
Arel1,SID363553269,58.8,55.3,inactive
Arel1,SID363566593,67.8,68.6,inactive

Reagents listed above marked active:
Target gene,PubChem SID,"GFP, % of control","viability (ATP), % of control",outcome
Or6c68,SID363554675,198,101,active

Additional results follow.
Target gene,PubChem SID,"GFP, % of control","viability (ATP), % of control",outcome
Defb29,SID363540845,99.7,90.7,inactive
Defb29,SID363543296,80.1,96.1,inactive
Defb29,SID363552789,88.7,88.7,inactive
Kctd6,SID363554029,60.3,51.9,inactive
Kctd6,SID363561986,132,64.9,active
Kctd6,SID363565724,108,90.8,inactive
Ggt1,SID363547210,96.9,92.5,inactive
Ggt1,SID363557979,77.9,86.4,inactive
Ggt1,SID363559737,88.5,74.3,inactive
Icam2,SID363573418,69.6,89.7,inactive
Icam2,SID363588657,98.1,73.9,inactive
Cep170,SID363552158,60.4,106,inactive
Cep170,SID363585294,71.9,68.7,inactive
Cep170,SID363585645,75.6,121,inactive
Kcnc4,SID363574795,102,69,inactive
Kcnc4,SID363575851,166,130,active
Kcnc4,SID363580427,173,59.5,active
4930583K01Rik,SID363542516,70.9,29.1,inactive
4930583K01Rik,SID363552007,69.3,62.8,inactive
4930583K01Rik,SID363559612,93.2,83.6,inactive
